Negatives hold for the conditions tested. At least one verdict was read from the data and is not stated in words by the source. For part of these data: The exact form of at least one protein or probe is not confirmed.
How the values were obtained:
Experiment in all cases: SnS2-FET aptasensor
Conditions in all cases: 10 nM protein, response to 1 pM T4 at least several fold higher; 5'-thiol, immobilized on MPTMS surface through a disulfide bond; 1x PBS, pH 7.4; aptamer immobilized on PEG:MPTMS/SnS2-FET (AptT4:PEG:PTMS 1:2:3); temperature not stated; commercial protein; single-stranded DNA
[1] = biological target: bovine serum albumin (BSA) (bovine) (UniProt P02769)
[2] = system: thyroid-stimulating hormone (hTSH) (human)
hemoglobin (Hb) = system: hemoglobin (Hb)

Chains of the proteins cited; added tags and fusions are not shown. Chains listed by the source or under a name are the forms on record and can include a tag or linker. Residues count along the entry.
UniProt P02769, 25-607: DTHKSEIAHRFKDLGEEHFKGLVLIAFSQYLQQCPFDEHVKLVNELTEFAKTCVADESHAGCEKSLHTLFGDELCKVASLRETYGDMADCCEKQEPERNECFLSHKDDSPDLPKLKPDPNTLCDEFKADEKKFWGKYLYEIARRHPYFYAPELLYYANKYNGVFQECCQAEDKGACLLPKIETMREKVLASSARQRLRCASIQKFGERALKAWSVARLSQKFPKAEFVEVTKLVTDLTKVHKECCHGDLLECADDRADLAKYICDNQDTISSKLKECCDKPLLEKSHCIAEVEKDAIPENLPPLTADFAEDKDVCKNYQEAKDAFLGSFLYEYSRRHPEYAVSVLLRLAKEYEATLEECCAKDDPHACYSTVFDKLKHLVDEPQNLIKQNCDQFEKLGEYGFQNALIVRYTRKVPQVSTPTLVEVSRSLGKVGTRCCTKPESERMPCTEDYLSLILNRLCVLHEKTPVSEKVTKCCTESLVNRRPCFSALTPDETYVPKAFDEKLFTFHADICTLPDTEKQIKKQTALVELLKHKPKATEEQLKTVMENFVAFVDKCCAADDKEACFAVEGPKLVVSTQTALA
thyroid-stimulating hormone (hTSH) (human), one chain, as listed by the source, chain 2 of 2: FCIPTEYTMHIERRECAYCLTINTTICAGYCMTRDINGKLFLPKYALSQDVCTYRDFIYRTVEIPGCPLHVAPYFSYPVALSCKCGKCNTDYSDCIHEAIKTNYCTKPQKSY
thyroid-stimulating hormone (hTSH) (human), one chain, as listed by the source, chain 1 of 2: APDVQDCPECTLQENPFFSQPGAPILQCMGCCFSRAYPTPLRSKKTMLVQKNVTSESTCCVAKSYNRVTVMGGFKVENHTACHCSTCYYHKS

Measured: binding result

CGCCGTTGGTGTTCGGTCAGGCTTCCGTGGCAACGGGGCAAAATGGTAATCGCGGGGAACC [AptT4 (SH-5'-AptT4), 61-mer T4 aptamer]
no binding: all assays above
